Measurements from article PMC3292575.
Results are given in words; binding and its absence hold for the method and conditions named. In cells and extracts the contact can be indirect. Some binding calls cover weakened binding; strength is not graded here.

Biological target: WT HERG 1a cmyc tagged subunit (human) (UniProt Q12809)
Test: co-IP; anti-cmyc (9E10) antibody and protein G PLUS-agarose from cleared lysates of transiently co-transfected HEK293 cells, 48 h post transfection; solubilization buffer with 150 mM NaCl, 25 mM Tris-HCl pH 7.4, 0.5% TX100, 4°C; blot probed with anti-C terminal HERG antibody

Substance: WT HERG 1b untagged (from UniProt Q12809-2 1-819)
- binding: binds
